Test results as given in patent US20160108100A1.
Results are given in words; binding and its absence hold for the method and conditions named. Some binding calls cover weakened binding; strength is not graded here. Where a sequence is shown, tags or fusion partners need not be part of it.

Chains of the proteins cited; added tags and fusions are not shown.
UniProt P07814: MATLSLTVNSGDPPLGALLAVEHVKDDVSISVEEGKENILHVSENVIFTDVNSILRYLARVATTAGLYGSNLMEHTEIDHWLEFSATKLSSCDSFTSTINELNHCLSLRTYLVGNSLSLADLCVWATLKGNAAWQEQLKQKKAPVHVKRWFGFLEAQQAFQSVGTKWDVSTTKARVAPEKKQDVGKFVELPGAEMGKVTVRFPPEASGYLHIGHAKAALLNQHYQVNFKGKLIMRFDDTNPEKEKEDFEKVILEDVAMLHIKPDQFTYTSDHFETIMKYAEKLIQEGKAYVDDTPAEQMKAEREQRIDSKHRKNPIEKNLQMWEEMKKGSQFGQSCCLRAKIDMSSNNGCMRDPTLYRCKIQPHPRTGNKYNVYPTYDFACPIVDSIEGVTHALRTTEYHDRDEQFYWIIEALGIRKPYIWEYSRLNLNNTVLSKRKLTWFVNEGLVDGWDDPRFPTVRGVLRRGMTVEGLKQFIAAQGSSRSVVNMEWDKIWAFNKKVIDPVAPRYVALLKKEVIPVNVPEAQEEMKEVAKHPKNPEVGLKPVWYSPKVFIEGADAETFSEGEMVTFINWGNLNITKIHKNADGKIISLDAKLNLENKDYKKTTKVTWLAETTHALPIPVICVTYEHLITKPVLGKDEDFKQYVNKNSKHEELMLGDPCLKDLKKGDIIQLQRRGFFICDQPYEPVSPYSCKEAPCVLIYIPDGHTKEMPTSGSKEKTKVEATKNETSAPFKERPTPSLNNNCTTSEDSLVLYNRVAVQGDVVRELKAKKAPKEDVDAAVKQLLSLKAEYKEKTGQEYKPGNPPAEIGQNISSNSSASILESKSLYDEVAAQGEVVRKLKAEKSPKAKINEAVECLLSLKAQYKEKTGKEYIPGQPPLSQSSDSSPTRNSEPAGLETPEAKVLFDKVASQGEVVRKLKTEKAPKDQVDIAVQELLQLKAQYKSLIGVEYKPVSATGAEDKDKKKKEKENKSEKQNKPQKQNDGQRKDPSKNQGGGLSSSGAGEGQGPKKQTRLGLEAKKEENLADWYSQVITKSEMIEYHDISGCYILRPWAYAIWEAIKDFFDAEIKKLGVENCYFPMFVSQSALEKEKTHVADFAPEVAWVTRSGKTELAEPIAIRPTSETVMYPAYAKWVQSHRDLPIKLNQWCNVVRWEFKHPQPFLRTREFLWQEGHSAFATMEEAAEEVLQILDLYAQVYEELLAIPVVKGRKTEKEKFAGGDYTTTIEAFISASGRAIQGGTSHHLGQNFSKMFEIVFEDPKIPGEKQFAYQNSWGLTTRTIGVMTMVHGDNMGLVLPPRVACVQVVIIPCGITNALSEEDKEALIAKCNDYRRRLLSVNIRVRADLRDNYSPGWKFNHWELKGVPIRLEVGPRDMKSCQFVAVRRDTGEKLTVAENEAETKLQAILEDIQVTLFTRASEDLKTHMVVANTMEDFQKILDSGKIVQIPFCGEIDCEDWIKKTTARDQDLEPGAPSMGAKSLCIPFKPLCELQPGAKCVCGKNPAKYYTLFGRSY

Legend:
[1] = molecular target: Glutamyl-Prolyl tRNA synthetase (EPRS) (human) (UniProt P07814); assay: anti-FLAG immunoprecipitation from cell extracts, anti-EPRS western blot
[2] = molecular target: Glutamyl-Prolyl tRNA synthetase (EPRS) (human) (UniProt P07814); assay: anti-FLAG immunoprecipitation, anti-EPRS western blot
[3] = molecular target: Glutamyl-Prolyl tRNA synthetase (EPRS) (human) (UniProt P07814); assay: immunoprecipitation with flagged EN1 as bait, anti-EPRS detection

Measured: binding

B1: Full length EN1 with FLAG tag (protein, human)
chain: MEEQQPEPKSQRDSALGAAAAATPGGLSLSLSPGASGSSGSGSDGDSVPVSPQPAPPSPPAAPCLPPLAHHPHLPPHPPPPPPQHLAAPAHQPQPAAQLHRTTNFFIDNILRPDFGCKKEQPPPQLLVAAAARGGAGGGGRVERDRGQTAAGRDPVHPLGTRAPGAASLLCAPDANCGPPDGSQPAAAGAGASKAGNPAAAAAAAAAAVAAAAAAAAAKPSDTGGGGSGGGAGSPGAQGTKYPEHGNPAILLMGSANGGPVVKTDSQQPLVWPAWVYCTRYSDRPSSGPRTRKLKKKKNEKEDKRPRTAFTAEQLQRLKAEFQANRYITEQRRQTLAQELSLNESQIKIWFQNKRAKIKKATGIKNGLALHLMAQGLYNHSTTTVQDKDESEDYKDDDDK
binds: all assays above
